# Results deposited as PubChem BioAssay AID1224830 (NIAID, 2016)
# Test: 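Host factors that control LPS-induced TNF expression in human macrophages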 (primary screen)
# System: human THP-1 monocytic leukaemia cells, TNF dual-luciferase reporter clone, PMA-differentiated to macrophage-like cells
# Knock-down reagent: siRNA pool against human genes, 50 nM
# Duration: LPS for 4 h, given about 3 days after siRNA transfection
# Treatment: bacterial LPS (TLR4 ligand), 10 ng/ml
# Read-out: 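Ratio of firefly to renilla light, scaled to the plate median and expressed as a robust z-score per replicate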
# Scale: TNF reporter robust z-score: higher = stronger TNF reporter response to LPS
# Rule for the call: 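Each well counts as active if its z-score is over 2.8 or under -1.5; controls are left without a call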
# The deposit covers about 18,000 reagents; this is a random part of them. Of all reagents, about 2,900 (16%) got an active call. 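Calls are made per well; low scores hint the gene aids the LPS response, high scores that it dampens it.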 Repeated entries: four replicate wells of each siRNA pool.
Gene,PubChem SID,TNF reporter robust z-score,Outcome
TGFBRAP1 (GeneID 9392),SID315453251,-0.01,inactive
TGFBRAP1 (GeneID 9392),SID315453251,0.5,inactive
TGFBRAP1 (GeneID 9392),SID315453251,2.48,inactive
TGFBRAP1 (GeneID 9392),SID315453251,2.24,inactive
PTPN22 (GeneID 26191),SID315455710,-0.22,inactive
PTPN22 (GeneID 26191),SID315455710,-1.04,inactive
PTPN22 (GeneID 26191),SID315455710,-1.49,inactive
PTPN22 (GeneID 26191),SID315455710,1.48,inactive
WHRN (GeneID 25861),SID315455515,0.23,inactive
WHRN (GeneID 25861),SID315455515,0.48,inactive
WHRN (GeneID 25861),SID315455515,-0.12,inactive
WHRN (GeneID 25861),SID315455515,0.63,inactive
FANK1 (GeneID 92565),SID315461015,-0.55,inactive
FANK1 (GeneID 92565),SID315461015,-0.09,inactive
FANK1 (GeneID 92565),SID315461015,0.46,inactive
MTIF2 (GeneID 4528),SID315450068,-1.25,inactive
MTIF2 (GeneID 4528),SID315450068,1.42,inactive
MTIF2 (GeneID 4528),SID315450068,0.22,inactive
MTIF2 (GeneID 4528),SID315450068,-0.38,inactive
UBFD1 (GeneID 56061),SID315457981,0.58,inactive
UBFD1 (GeneID 56061),SID315457981,-0.49,inactive
UBFD1 (GeneID 56061),SID315457981,0.47,inactive
UBFD1 (GeneID 56061),SID315457981,0.51,inactive
FBLN2 (GeneID 2199),SID315448641,1.58,inactive
FBLN2 (GeneID 2199),SID315448641,0,inactive
FBLN2 (GeneID 2199),SID315448641,0.71,inactive
FBLN2 (GeneID 2199),SID315448641,0.36,inactive
ZNF607 (GeneID 84775),SID315460498,3.36,active
ZNF607 (GeneID 84775),SID315460498,3.61,active
ZNF607 (GeneID 84775),SID315460498,2.41,inactive
ZNF607 (GeneID 84775),SID315460498,1.52,inactive

Continued (10 carried over from the part before).
Gene,PubChem SID,TNF reporter robust z-score,Outcome
UBFD1 (GeneID 56061),SID315457981,0.47,inactive
UBFD1 (GeneID 56061),SID315457981,0.51,inactive
FBLN2 (GeneID 2199),SID315448641,1.58,inactive
FBLN2 (GeneID 2199),SID315448641,0,inactive
FBLN2 (GeneID 2199),SID315448641,0.71,inactive
FBLN2 (GeneID 2199),SID315448641,0.36,inactive
ZNF607 (GeneID 84775),SID315460498,3.36,active
ZNF607 (GeneID 84775),SID315460498,3.61,active
ZNF607 (GeneID 84775),SID315460498,2.41,inactive
ZNF607 (GeneID 84775),SID315460498,1.52,inactive
CD244 (GeneID 51744),SID315456876,0.29,inactive
CD244 (GeneID 51744),SID315456876,0.17,inactive
CD244 (GeneID 51744),SID315456876,-0.36,inactive
CD244 (GeneID 51744),SID315456876,-0.47,inactive
C1QL3 (GeneID 389941),SID315464590,1.04,inactive
C1QL3 (GeneID 389941),SID315464590,0.9,inactive
C1QL3 (GeneID 389941),SID315464590,-0.34,inactive
C1QL3 (GeneID 389941),SID315464590,0.57,inactive
MYO1E (GeneID 4643),SID315450124,2.49,inactive
MYO1E (GeneID 4643),SID315450124,1.71,inactive
MYO1E (GeneID 4643),SID315450124,1.75,inactive
MYO1E (GeneID 4643),SID315450124,2.65,inactive
SLC16A10 (GeneID 117247),SID315461421,-1.89,active
SLC16A10 (GeneID 117247),SID315461421,-1.51,active
SLC16A10 (GeneID 117247),SID315461421,-1.65,active
SLC16A10 (GeneID 117247),SID315461421,-1.39,inactive
GATA5 (GeneID 140628),SID315462112,-1.58,active
GATA5 (GeneID 140628),SID315462112,-1.2,inactive
GATA5 (GeneID 140628),SID315462112,-1.09,inactive
GATA5 (GeneID 140628),SID315462112,-1.23,inactive
MZT2A (GeneID 653784),SID315465159,0.78,inactive
MZT2A (GeneID 653784),SID315465159,1.17,inactive
MZT2A (GeneID 653784),SID315465159,1.85,inactive
MZT2A (GeneID 653784),SID315465159,1.13,inactive
ARHGAP17 (GeneID 55114),SID315457417,-0.83,inactive
ARHGAP17 (GeneID 55114),SID315457417,-0.1,inactive
ARHGAP17 (GeneID 55114),SID315457417,-0.5,inactive
SLC18B1 (GeneID 116843),SID315461393,0,inactive
SLC18B1 (GeneID 116843),SID315461393,-0.01,inactive
SLC18B1 (GeneID 116843),SID315461393,0.37,inactive
SLC18B1 (GeneID 116843),SID315461393,0.57,inactive
ZMYM3 (GeneID 9203),SID315453119,-1,inactive
ZMYM3 (GeneID 9203),SID315453119,-0.81,inactive
ZMYM3 (GeneID 9203),SID315453119,-0.64,inactive
ZMYM3 (GeneID 9203),SID315453119,0.13,inactive
H3C8 (GeneID 8355),SID315452506,0.61,inactive
H3C8 (GeneID 8355),SID315452506,0.75,inactive
H3C8 (GeneID 8355),SID315452506,1.63,inactive
H3C8 (GeneID 8355),SID315452506,-0.33,inactive
COX7B (GeneID 1349),SID315448053,0.55,inactive
COX7B (GeneID 1349),SID315448053,0.5,inactive
COX7B (GeneID 1349),SID315448053,-1.26,inactive
COX7B (GeneID 1349),SID315448053,0.96,inactive
CABLES1 (GeneID 91768),SID315460951,-1.27,inactive
CABLES1 (GeneID 91768),SID315460951,-1.31,inactive
CABLES1 (GeneID 91768),SID315460951,-1.42,inactive
CABLES1 (GeneID 91768),SID315460951,-1.67,active
